US20040028684A1, “Cancer diagnosis and assays for screening anti-cancer agents” (priority 2000, published 2004)
No constants are given. Whether binding was seen depends on the method and setting. Some entries that bind do so weakly or less than the wild type.

Chains of the proteins cited; added tags and fusions are not shown. Lines headed by an entry give the natural chain unless they say otherwise; changes in a name come on top.
UniProt Q9UBK9: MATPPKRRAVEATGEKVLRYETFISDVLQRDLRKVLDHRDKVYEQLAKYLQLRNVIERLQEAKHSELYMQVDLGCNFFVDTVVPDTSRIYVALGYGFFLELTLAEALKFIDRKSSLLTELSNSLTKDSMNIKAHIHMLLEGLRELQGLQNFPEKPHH
UniProt P04386: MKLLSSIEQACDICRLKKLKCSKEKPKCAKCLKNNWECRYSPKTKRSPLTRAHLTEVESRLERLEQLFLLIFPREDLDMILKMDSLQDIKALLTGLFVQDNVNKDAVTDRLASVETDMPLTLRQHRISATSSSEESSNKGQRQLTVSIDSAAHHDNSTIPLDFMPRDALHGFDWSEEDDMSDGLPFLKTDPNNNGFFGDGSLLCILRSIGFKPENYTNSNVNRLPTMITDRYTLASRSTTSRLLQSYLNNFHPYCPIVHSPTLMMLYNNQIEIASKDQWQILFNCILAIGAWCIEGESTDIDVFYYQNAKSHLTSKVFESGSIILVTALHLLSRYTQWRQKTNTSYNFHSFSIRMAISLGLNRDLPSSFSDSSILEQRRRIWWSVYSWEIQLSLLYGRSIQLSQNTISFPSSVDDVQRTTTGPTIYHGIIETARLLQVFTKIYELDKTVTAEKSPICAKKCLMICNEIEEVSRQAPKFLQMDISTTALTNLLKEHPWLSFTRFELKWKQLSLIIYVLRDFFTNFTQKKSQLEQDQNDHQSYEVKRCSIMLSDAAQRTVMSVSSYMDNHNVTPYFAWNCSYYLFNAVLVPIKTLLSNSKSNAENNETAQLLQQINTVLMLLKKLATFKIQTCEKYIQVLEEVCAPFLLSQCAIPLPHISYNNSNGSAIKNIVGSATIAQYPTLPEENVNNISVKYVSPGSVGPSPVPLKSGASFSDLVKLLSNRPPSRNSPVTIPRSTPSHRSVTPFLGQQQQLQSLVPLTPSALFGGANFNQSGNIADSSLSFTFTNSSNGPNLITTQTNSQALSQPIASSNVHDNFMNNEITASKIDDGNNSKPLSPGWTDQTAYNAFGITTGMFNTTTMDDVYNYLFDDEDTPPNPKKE

Biological target: STAP1 (Skp 2-associated protein one), cDNA clones from a HeLa cell library in pGAD-GH (human (HeLa cell library)) (UniProt Q9UBK9)
Test: yeast two-hybrid screen of a HeLa cDNA library (selection on minus Leu/Trp/His with 3-amino-triazole, galactosidase activity)

- binding: binds
Substance: residues 101-423 of human Skp 2 cloned in the GAL4 DNA-binding domain vector pAS2-1 (from UniProt P04386 1-147; Q13309 101-423)
